Source: the supplement of paper PMC10849652
This is one part of the list.

Sequences of proteins named here, by UniProt entry; tags and fusion partners are left off. A change or cut given only in a name is not applied to a line headed by its entry.
UniProt Q8N2G8: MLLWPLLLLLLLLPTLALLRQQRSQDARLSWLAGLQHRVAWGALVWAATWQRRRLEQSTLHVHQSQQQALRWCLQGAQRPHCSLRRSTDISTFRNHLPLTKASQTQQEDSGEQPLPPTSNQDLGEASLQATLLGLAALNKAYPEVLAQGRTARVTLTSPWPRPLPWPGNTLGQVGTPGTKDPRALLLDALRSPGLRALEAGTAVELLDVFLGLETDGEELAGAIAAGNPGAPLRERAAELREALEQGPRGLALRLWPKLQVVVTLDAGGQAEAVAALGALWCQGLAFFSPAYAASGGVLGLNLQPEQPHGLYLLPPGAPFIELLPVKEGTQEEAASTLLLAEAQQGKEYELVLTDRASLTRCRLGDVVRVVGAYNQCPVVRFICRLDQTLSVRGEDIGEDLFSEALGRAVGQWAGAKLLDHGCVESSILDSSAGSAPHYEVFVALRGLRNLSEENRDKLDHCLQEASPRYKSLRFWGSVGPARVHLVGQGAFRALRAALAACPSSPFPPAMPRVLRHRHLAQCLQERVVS
UniProt O95749: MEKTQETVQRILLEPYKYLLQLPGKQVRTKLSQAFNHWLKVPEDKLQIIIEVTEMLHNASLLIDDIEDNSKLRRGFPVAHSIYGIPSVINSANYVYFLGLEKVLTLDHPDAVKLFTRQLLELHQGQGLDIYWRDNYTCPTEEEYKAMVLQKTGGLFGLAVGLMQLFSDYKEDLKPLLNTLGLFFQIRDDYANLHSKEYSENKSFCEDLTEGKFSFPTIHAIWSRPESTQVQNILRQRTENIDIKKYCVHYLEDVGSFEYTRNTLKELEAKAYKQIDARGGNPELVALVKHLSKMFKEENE
UniProt P02792: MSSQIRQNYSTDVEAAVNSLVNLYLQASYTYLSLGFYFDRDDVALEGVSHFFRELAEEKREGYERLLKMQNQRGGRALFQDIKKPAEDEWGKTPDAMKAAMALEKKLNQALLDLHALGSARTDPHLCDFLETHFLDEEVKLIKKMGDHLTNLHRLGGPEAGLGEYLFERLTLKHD
UniProt P04066: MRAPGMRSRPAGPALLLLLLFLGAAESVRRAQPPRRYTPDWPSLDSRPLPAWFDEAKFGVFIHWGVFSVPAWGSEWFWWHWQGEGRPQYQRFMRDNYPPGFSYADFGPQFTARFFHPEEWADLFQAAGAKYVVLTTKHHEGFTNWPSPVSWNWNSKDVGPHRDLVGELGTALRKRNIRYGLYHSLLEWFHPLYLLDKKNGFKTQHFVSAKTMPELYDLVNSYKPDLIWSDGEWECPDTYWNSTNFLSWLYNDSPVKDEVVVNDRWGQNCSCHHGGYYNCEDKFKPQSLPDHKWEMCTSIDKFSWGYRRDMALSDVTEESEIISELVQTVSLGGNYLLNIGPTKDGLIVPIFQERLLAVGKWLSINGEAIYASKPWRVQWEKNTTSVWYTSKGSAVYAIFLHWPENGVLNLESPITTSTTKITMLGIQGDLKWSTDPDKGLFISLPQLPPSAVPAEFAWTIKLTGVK
UniProt Q8TB36: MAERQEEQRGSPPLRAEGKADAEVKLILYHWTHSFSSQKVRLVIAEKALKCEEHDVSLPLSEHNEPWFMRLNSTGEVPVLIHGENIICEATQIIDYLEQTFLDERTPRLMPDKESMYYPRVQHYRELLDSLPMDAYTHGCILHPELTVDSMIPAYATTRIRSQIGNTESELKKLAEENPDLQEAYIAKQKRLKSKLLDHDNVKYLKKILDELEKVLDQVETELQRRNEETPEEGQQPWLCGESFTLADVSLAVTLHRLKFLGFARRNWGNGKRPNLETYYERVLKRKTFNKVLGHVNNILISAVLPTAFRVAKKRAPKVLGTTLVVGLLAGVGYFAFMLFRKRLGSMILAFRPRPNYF
UniProt P60520, whole entry, looked up: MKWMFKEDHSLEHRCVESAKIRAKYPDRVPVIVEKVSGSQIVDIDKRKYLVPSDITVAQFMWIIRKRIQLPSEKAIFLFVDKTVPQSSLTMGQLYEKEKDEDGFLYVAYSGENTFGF
UniProt O94915: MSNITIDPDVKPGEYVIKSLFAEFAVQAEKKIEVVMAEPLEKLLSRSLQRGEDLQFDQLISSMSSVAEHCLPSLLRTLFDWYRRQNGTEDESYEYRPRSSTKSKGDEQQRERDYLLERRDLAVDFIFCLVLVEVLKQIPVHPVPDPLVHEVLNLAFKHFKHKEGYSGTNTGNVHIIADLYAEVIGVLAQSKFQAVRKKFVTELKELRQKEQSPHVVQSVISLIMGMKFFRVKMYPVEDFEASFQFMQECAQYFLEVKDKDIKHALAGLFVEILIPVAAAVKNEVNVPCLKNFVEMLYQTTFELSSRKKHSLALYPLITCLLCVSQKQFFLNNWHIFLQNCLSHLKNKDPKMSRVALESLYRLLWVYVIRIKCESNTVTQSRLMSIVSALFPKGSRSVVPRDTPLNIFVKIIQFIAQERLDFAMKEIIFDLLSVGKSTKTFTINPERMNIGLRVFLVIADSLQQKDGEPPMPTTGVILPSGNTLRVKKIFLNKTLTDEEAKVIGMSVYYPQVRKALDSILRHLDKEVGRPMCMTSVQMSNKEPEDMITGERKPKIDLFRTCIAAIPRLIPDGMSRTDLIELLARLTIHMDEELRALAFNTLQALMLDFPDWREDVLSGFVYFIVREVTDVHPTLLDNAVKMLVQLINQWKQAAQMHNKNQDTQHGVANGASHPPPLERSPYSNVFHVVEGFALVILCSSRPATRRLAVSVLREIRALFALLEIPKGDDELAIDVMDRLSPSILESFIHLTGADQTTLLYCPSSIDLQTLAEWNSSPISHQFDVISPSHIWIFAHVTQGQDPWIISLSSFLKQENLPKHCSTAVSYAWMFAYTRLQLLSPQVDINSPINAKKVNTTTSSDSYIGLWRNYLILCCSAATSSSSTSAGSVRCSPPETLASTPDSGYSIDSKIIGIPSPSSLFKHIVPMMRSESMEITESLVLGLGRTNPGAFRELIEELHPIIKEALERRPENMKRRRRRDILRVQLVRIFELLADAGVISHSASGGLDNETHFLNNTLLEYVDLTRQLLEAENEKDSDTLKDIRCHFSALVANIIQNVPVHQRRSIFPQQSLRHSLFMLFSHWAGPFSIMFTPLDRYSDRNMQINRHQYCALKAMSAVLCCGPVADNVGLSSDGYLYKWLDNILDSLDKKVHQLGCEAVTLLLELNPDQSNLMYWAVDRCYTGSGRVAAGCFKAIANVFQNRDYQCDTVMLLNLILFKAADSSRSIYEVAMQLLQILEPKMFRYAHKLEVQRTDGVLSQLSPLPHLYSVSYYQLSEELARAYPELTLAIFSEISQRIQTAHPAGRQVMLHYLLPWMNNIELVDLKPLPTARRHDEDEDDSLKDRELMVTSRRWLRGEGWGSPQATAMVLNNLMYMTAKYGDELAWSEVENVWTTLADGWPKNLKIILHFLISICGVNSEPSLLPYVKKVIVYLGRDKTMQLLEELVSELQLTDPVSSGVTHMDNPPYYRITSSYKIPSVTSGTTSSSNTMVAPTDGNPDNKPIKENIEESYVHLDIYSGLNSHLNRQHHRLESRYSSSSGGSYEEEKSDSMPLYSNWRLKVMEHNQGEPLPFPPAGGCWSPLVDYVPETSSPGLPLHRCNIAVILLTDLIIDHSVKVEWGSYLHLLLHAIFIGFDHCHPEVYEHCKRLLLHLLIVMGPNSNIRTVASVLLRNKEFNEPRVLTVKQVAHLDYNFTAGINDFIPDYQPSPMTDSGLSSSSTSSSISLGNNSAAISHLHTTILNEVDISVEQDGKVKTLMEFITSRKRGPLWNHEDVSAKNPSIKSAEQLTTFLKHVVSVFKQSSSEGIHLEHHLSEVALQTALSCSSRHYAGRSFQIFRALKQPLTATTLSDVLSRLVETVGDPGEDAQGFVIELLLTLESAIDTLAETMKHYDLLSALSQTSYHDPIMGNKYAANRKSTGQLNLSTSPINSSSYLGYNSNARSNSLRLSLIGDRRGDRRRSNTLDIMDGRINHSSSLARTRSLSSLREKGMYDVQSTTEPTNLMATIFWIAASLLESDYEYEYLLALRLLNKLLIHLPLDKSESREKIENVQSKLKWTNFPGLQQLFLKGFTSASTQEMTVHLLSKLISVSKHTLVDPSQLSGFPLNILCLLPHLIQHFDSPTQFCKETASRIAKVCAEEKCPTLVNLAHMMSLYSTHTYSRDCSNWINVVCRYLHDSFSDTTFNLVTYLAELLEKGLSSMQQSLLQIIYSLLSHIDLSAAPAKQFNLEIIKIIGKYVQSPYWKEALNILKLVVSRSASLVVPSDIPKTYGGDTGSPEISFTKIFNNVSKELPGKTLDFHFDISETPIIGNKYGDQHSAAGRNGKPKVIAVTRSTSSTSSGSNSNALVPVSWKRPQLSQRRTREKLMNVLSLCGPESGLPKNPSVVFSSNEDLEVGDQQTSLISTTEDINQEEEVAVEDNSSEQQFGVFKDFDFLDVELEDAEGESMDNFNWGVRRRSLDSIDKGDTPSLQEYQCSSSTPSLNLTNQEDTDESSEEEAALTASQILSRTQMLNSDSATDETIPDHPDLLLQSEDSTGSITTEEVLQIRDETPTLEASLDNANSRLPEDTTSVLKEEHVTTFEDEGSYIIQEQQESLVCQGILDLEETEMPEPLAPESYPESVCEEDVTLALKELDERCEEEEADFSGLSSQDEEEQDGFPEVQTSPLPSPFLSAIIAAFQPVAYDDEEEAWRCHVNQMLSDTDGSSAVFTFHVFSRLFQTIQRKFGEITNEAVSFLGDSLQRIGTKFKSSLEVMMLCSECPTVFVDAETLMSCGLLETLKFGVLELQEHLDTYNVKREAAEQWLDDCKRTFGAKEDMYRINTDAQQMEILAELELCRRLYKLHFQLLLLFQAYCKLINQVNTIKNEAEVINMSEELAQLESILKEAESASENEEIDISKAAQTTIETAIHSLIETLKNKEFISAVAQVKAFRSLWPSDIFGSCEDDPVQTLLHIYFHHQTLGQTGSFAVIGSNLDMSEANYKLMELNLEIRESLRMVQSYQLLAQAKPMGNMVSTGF

Columns and labels:
Experiment in all cases: log2 fold change, soluble protein after heating vs DMSO (PISA); higher = thermal stabilisation; K562 cells, 10 uM, 30 min; active = over 0.2 and 3.5 SD of the protein, either way, in both replicates (recomputed)
[1] = compound: C1=CC=C(C=C1)[C@H](COC2=CC3=C(C=C2)NC(=O)N3)NC(=O)C4=CC=CN(C4=O)CC5=CC(=C(C=C5)F)F
Procedure, shortened: (§1)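 For each measurement, 10 μM compound was applied for 30 min to K562 cells at 2×10^6 cells/mL. Aliquots were heated for 3 min across 48°C-58°C, pooled, and extracted in PBS with 0.5% NP-40 at 4°C; the supernatant after 21,000xg for 90 min was soluble protein. This was quantified by TMTpro 16plex LC-MS/MS with channel sums equalised, and thermal stability was reported relative to control samples from duplicates, on a log2 fold-change scale.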

[2] = compound: CC1=C(SC2=C1C(=N[C@H](C3=NN=C(N32)C)CC(=O)N)C4=CC=C(C=C4)Cl)C
Procedure, shortened: as §1

[3] = compound: CC1=C2C(=CC=C1)N=C(N(C2=O)C3=CC=CC=C3C)CN4C=NC5=C(N=CN=C54)N
Procedure, shortened: as §1

[4] = compound: Cc1sc2c(c1C)C(c1ccc(Cl)cc1)=N[C@@H](CC(=O)OC(C)(C)C)c1nnc(C)n1-2
Procedure, shortened: as §1

[5] = compound: c1ccc([C@@H]2C[C@H]2NC2CCNCC2)cc1
Procedure, shortened: as §1

Measured: log2 fold change

GHDC (UniProt Q8N2G8)
inactive: [1] 0.061 | [2] 0.016 | [3] 0.022 | [4] 0.031 | [5] -0.019

GGPS1 (UniProt O95749)
inactive: [1] -0.01 | [2] -0.024 | [3] 0.024 | [4] 0.019 | [5] 0.028

FTL (UniProt P02792)
inactive: [1] -0.036 | [2] -0.068 | [3] -0.098 | [4] 0.172 | [5] 0.032

FUCA1 (UniProt P04066)
inactive: [1] -0.001 | [2] 0.058 | [3] 0.03 | [4] 0.018 | [5] 0.053

FNTB (UniProt P49356)
inactive: [1] -0.034 | [2] 0.401 | [3] -0.017 | [4] 0.269 | [5] -0.044

GDAP1 (UniProt Q8TB36)
inactive: [1] -0.049 | [2] 0.033 | [3] 0.046 | [4] -0.014 | [5] -0.074

GABARAPL2 (UniProt P60520)
inactive: [1] 0.037 | [2] 0.035 | [3] 0.039 | [4] -0.038 | [5] -0.055

2 consecutive records out of the list so far, for reference:
FUCA1 (UniProt P04066)
inactive: [1] -0.001 | [2] 0.058 | [3] 0.03 | [4] 0.018 | [5] 0.053

FNTB (UniProt P49356)
inactive: [1] -0.034 | [2] 0.401 | [3] -0.017 | [4] 0.269 | [5] -0.044

(next part)

FRYL (UniProt O94915)
inactive: [1] -0.007 | [2] 0.03 | [3] 0.019 | [4] -0.016 | [5] 0.021

GADD45GIP1 (UniProt Q8TAE8)
inactive: [1] 0.03 | [2] -0.085 | [3] -0.091 | [4] 0.036 | [5] 0
